Assay results reported in article PMC4022406.
These are yes or no findings as the source states them, for the method shown. In cells and extracts the contact can be indirect. Some binding calls cover weakened binding; strength is not graded here.

Protein sequences, listed by entry. Tags and fused reporters are not part of them.
UniProt P02340: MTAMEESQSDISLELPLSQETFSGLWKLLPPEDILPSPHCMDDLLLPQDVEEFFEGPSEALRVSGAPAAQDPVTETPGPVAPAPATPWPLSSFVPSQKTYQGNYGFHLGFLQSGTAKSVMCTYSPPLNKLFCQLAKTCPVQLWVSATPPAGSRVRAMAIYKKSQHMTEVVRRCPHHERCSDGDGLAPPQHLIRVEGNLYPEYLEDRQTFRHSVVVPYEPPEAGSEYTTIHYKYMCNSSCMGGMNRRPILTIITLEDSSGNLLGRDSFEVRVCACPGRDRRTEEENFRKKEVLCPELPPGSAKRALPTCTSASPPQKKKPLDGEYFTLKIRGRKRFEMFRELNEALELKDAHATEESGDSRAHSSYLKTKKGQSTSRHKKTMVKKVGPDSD
UniProt P03372: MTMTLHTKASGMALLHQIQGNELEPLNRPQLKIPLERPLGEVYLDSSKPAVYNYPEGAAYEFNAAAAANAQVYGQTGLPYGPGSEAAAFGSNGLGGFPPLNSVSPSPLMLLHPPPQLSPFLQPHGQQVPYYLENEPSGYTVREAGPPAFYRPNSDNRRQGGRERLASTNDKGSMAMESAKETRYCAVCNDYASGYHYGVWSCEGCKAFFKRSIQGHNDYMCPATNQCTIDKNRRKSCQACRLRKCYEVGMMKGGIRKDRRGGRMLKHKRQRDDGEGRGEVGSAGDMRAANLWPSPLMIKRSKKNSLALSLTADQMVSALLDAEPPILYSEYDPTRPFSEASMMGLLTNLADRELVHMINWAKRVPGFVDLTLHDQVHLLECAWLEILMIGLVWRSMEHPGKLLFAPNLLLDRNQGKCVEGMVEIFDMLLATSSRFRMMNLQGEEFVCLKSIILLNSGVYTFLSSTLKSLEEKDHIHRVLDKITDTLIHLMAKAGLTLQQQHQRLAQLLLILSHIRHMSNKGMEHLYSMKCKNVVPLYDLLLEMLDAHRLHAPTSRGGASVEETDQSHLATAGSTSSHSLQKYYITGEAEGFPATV

B1: human thyroid receptor (hTRβ1), in vitro translated (receptor, UniProt P10828 1-461)
chain: MTPNSMTENGLTAWDKPKHCPDREHDWKLVGMSEACLHRKSHSERRSTLKNEQSSPHLIQTTWTSSIFHLDHDDVNDQSVSSAQTFQTEEKKCKGYIPSYLDKDELCVVCGDKATGYHYRCITCEGCKGFFRRTIQKNLHPSYSCKYEGKCVIDKVTRNQCQECRFKKCIYVGMATDLVLDDSKRLAKRKLIEENREKRRREELQKSIGHKPEPTDEEWELIKTVTEAHVATNAQGSHWKQKRKFLPEDIGQAPIVNAPEGGKVDLEAFSHFTKIITPAITRVVDFAKKLPMFCELPCEDQIILLKGCCMEIMSLRAAVRYDPESETLTLNGEMAVTRGQLKNGGLGVVSDAIFDLGMSLSSFNLDDTEVALLQAVLLMSSDRPGLACVERIEKYQDSFLLAFEHYINYRKHHVTHFWPKLLMKVTDLRMIGACHASRFLHMKVECPTELFPPLFLEVFED
modifications: 35S-labeled

Biological target: GST-fused wild-type mouse p53 (mouse) (UniProt P02340)
Test: pull-down; 35S-labeled ER or TR translated in vitro, incubated with bead-bound GST-p53 fusion proteins, without or with hormone (100 nM E2 for ER, 1 μM T3 for TR); SDS-PAGE, autoradiography, phosphorimager; only the target purified

Row | binding | Molecule
1 | binds | human estrogen receptor (hERα), in vitro translated (from UniProt P03372 1-595)
2 | binds | B1
